Test results taken from publication doi:10.1101/2025.04.19.649636.
Like-named read-outs stand apart in the source and are kept apart here. These are yes or no findings as the source states them, for the method shown. In cells and extracts the contact can be indirect. Some results given as binding are weak or reduced against the parent protein; the word gives no strength.

By UniProt entry, the sequences of proteins in these tests, tags left out. Residues count along the entry.
UniProt Q96CG8, residues 31-243: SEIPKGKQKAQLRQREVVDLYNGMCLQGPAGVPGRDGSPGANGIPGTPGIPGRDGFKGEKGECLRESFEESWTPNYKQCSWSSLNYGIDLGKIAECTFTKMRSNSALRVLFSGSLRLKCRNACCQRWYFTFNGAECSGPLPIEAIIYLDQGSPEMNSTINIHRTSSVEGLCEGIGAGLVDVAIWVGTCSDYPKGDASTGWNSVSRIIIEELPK
UniProt Q13443, residues 29-819: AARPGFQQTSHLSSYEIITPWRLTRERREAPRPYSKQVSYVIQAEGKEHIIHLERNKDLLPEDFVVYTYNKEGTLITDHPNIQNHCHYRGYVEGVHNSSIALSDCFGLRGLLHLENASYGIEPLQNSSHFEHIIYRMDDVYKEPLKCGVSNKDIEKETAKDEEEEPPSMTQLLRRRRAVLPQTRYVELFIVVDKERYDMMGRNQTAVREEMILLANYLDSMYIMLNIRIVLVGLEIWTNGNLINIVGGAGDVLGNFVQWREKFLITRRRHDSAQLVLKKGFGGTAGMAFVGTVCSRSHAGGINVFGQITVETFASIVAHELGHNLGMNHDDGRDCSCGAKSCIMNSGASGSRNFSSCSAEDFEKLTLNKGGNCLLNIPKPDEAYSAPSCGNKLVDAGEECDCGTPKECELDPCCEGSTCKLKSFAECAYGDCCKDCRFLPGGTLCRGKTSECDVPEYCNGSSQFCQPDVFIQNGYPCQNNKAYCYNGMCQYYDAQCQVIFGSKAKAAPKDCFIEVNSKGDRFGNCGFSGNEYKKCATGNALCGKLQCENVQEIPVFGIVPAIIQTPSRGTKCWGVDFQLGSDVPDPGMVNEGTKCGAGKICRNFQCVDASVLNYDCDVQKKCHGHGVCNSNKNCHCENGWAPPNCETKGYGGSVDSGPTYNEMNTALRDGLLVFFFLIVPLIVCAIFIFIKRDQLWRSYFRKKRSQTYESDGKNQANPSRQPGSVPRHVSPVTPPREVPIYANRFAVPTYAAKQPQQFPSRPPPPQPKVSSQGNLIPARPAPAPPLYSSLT

Key:
[1] = target: recombinant human CTHRC1 Protein (human) (UniProt Q96CG8); test: co-IP
[2] = target: recombinant human CTHRC1 Protein (human) (UniProt Q96CG8); test: co-IP; remark: listed apart in the source

binding [1]	binding [2]	Molecule
binds	–	ADAM9 of human aortic smooth muscle cells (from UniProt Q13443 29-819)
–	binds	ADAM metallopeptidase domain 9 (ADAM9) of MOVAS cells (protein, UniProt Q61072 30-845) GRPDLEQTVHLSSYEIITPWRLTRERREALGPSSQQISYVIQAQGKQHIIHLERNTDLLPNDFVVYTYDKEGSLLSDHPNVQSHCHYRGYVEGVQNSAVAVSACFGLRGLLHLENASFGIEPLHNSSHFEHIFYPMDGIHQEPLRCGVSNRDTEKEGTQGDEEEHPSVTQLLRRRRAVLPQTRYVELFIVVDKERYDMMGRNQTAVREEMIRLANYLDSMYIMLNIRIVLVGLEIWTDRNPINIIGGAGDVLGNFVQWREKFLITRWRHDSAQLVLKKGFGGTAGMAFVGTVCSRSHAGGINVFGQITVETFASIVAHELGHNLGMNHDDGRECFCGAKSCIMNSGASGSRNFSSCSAEDFEKLTLNKGGSCLLNIPKPDEAYSAPSCGNKLVDPGEECDCGTAKECEVDPCCEGSTCKLKSFAECAYGDCCKDCQFLPGGSMCRGKTSECDVPEYCNGSSQFCPPDVFIQNGYPCQNSKAYCYNGMCQYYDAQCQVIFGSKAKAAPRDCFIEVNSKGDRFGNCGFSGSEYKKCATGNALCGKLQCENVQDMPVFGIVPAIIQTPSRGTKCWGVDFQLGSDVPDPGMVNEGTKCDAGKICRNFQCVNASVLNYDCDIQGKCHGHGVCNSNKNCHCEDGWAPPHCDTKGYGGSVDSGPTYNAKSTALRDGLLVFFFLIVPLVAAAIFLFIKRDELRKTFRKKRSQMSDGRNQANVSRQPGDPSISRPPGGPNVSRPPGGPGVSRPPGGPGVSRPPGGPGVSRPPPGHGNRFPVPTYAAKQPAQFPSRPPPPQPKISSQGNLIPARPAPAPPLYSSLT
